Values joined by “and” are separate entries in the source; they are usually repeats but may differ in a detail not shown here. Equal entries are not always repeated. The list shows a part of the results. Single values are uncertain, as repeats are few or missing.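 Hepatocyte-like cells derived from human stem cells with CRISPR-disrupted DGUOK model liver mtDNA depletion syndrome. Each well's ATP signal was scored against other wells on the same plate, and drugs scoring 3 or above were primary hits.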
System: DGUOK Δ14/Δ5 iPSC-derived hepatocyte-like cells (SV20)
Assay: ATP level (CellTiter-Glo luminescence) Z score relative to plate distribution, under 2-DG glycolysis block; higher = more cellular ATP (rescue of mitochondrial ATP production)
Details: 5 µM; treatment time: day 15 to day 20 of differentiation (5 days); 2-deoxy-D-glucose: 20 mM for 24 h before assay

Compound | ATP level
CCCc1cc(C(N)=S)ccn1 | inactive: 1.99
CC(Cc1cccc(C(F)(F)F)c1)NCCOC(=O)c1ccccc1 (stereo not given) | inactive: 0.771
C=C1CC[C@H](O)C/C1=C/C=C1\CCC[C@]2(C)[C@@H]([C@H](C)CCCC(C)C)CC[C@@H]12 | inactive: 0.695
NNCCc1ccccc1 | inactive: -0.413
Cc1nccnc1N1CCCCC1 | inactive: 1.75
CC(C)(CO)[C@@H](O)C(=O)NCCC(=O)NCCSSCCNC(=O)CCNC(=O)[C@H](O)C(C)(C)CO | inactive: 0.927
CN1CCN(CC/C=C2/c3ccccc3Sc3ccc(S(=O)(=O)N(C)C)cc32)CC1 | inactive: -2.6
CN1CCC(=C2c3ccccc3C=Cc3ccccc32)CC1 | inactive: -6.27
COc1ccc(-c2cc(=O)c3ccccc3o2)cc1 | inactive: 1.41
N=C(N)NC(=N)NCCc1ccccc1 | inactive: -4.38
Cc1cccc(C)c1NC(=O)c1ccccc1C(=O)O | inactive: 2.99
C[C@](N)(Cc1ccc(O)cc1)C(=O)O [alpha-METHYL-L-TYROSINE] | inactive: 2.2
CCN(CC)CCCC(C)Nc1ccnc2cc(Cl)ccc12 (stereo not given) | inactive: -1.82
FCOC(C(F)(F)F)C(F)(F)F | inactive: -1.02
O=C1CC(c2ccccc2)Oc2ccccc21 (stereo not given) | inactive: -0.869
CCCCCC1C(=O)CCC1CC(=O)OC (stereo not given) | inactive: 1.22
Nc1ccc(S(=O)(=O)NC(=O)c2ccccc2)cc1 | inactive: 0.323
C[N+](C)(C)CCOP(=O)(O)OP(=O)([O-])OC[C@H]1O[C@@H](n2ccc(N)nc2=O)[C@H](O)[C@@H]1O | inactive: 0.844
CC(C)c1nc(N(C)S(C)(=O)=O)nc(-c2ccc(F)cc2)c1/C=C/[C@@H](O)C[C@@H](O)CC(=O)O | inactive: 0.29
C=C(CC)C(=O)c1ccc(OCC(=O)O)c(Cl)c1Cl | inactive: -0.403

Compound | ATP level
Oc1ccc2c(c1)OC[C@]1(O)Cc3cc(O)c(O)cc3[C@H]21 | inactive: -1.42
C[Se]CC[C@H](N)C(=O)O | inactive: 1.11
C1N2CN3CN1CN(C2)C3 | inactive: 0.0362
CCCCCN(C)CCC(O)(P(=O)(O)O)P(=O)(O)O | inactive: 2.27
Cc1ncc([N+](=O)[O-])n1C | inactive: -0.405
C[C@@H](O)[C@H]1C(=O)N2C(C(=O)O)=C(SCCNC=N)C[C@H]12 | inactive: -15.1
c1ccc2c(c1)CCCC2C1=NCCN1 (stereo not given) | inactive: -0.375
C=CCc1ccc(O)c(OC)c1 | inactive: -0.451
CCn1cc(C(=O)O)c(=O)c2cc(F)c(N3CCNCC3)nc21 | inactive: -29.8
CC(=O)OCC(=O)NCCCOc1cccc(CN2CCCCC2)c1 | inactive: 0.123
CN(C)c1cnccn1 | inactive: -3.28
COc1cc(O)c(C(=O)/C=C/c2ccc(OC)c(O)c2)c(OC)c1 | inactive: 1.02
CCCc1ncc(C[n+]2ccccc2C)c(N)n1 | inactive: 1.48
C=CC(C)(O)CCC=C(C)CCC=C(C)C (mixture of isomers) | inactive: -1.21
CC(=O)N[C@@H](Cc1c[nH]c2ccccc12)C(=O)O | inactive: -0.865
Oc1ccc(C2CNCCc3c2cc(O)c(O)c3Cl)cc1 (stereo not given) | inactive: 1.67
COc1ccccc1-c1coc2cc(O)ccc2c1=O | inactive: -4
CC(C(=O)O)c1cccc(Oc2ccccc2)c1 (stereo not given) | inactive: -4.47
O=C1OC(c2ccc(O)cc2)(c2ccc(O)cc2)c2ccccc21 | inactive: 1.44
COc1cc(C(=S)N2CCOCC2)ccc1O | inactive: 2.29

Compound | ATP level
COc1cc(OC)c2c(=O)cc(-c3ccccc3)oc2c1 | inactive: -1.32
COc1ccc2c(C)cc(=O)oc2c1 | inactive: 1.07
COC(=O)C[C@H]1C(C)(C)[C@@H](O)[C@@H]2CC3=C4C=C(OC)O[C@@H](c5ccoc5)[C@]4(C)CCC3[C@@]1(C)C2=O (stereo partly drawn) [3-DEOXO-3beta-HYDROXYMEXICANOLIDE 16-ENOL ETHER] | inactive: -1.76
COc1cc2occ(-c3ccc(OC)c(OC)c3OC)c(=O)c2cc1OC | inactive: 1.78
Cc1ccc(N(CC2=NCCN2)c2cccc(O)c2)cc1 | inactive: 0.875
CCc1ccc(CCOc2ccc(CC3SC(=O)NC3=O)cc2)nc1 (stereo not given) | inactive: 2.04
CCCSc1ccc2[nH]c(NC(=O)OC)nc2c1 | inactive: -2.81
Cc1c(Cl)cccc1Nc1ccccc1C(=O)O | inactive: -5.45
C[C@@H]1CC[C@H]2C(C)(C)[C@H]3C[C@@]12CC[C@@]3(C)O | inactive: 1.18
CO[C@H]1/C=C/O[C@@]2(C)Oc3c(C)c(O)c4c(O)c(c(/C=N/N5CCN(C)CC5)c(O)c4c3C2=O)NC(=O)/C(C)=C\C=C\[C@H](C)[C@H](O)[C@@H](C)[C@@H](O)[C@@H](C)[C@H](OC(C)=O)[C@@H]1C | inactive: -0.026
COc1cc(C)c(C(=O)O)c(O)c1 | inactive: 1.73
CC(C(=O)O)c1ccc(CC2CCCC2=O)cc1 (stereo not given) | inactive: 0.282
CC[C@H]1OC(=O)[C@H](C)[C@@H](O[C@H]2C[C@@](C)(OC)[C@@H](O)[C@H](C)O2)[C@H](C)[C@@H](O[C@@H]2O[C@H](C)C[C@H](N(C)C)[C@H]2O)[C@](C)(O)C[C@@H](C)C(=O)[C@H](C)[C@@H](O)[C@]1(C)O | inactive: 1.07 and inactive: -0.173
CC1=C(/C=C/C(C)=C/C=C/C(C)=C/C=C/C=C(C)/C=C/C=C(C)/C=C/C2=C(C)CCCC2(C)C)C(C)(C)CCC1 [beta-CAROTENE [2mM]] | inactive: -11
OCCN1CCN(CCCN2c3ccccc3Sc3ccc(C(F)(F)F)cc32)CC1 | inactive: -2.43
CC(C)(Oc1ccc(CCNC(=O)c2ccc(Cl)cc2)cc1)C(=O)O | inactive: 1.47
c1ccc(CC2=NCCN2)cc1 | inactive: -0.799
NCCCCC(=O)O | inactive: -1.24
CC1=CC(=O)[C@H]2C(C)(C)CCC[C@]2(C)[C@@]1(O)CCc1ccoc1 | inactive: -2.82
CC(=O)OCC(=O)[C@H]1CC[C@H]2[C@@H]3CC=C4C[C@@H](O)CC[C@]4(C)[C@H]3CC[C@]12C | inactive: 0.0911

Look-ups from the list.
Under ATP level, CC[C@H]1OC(=O)[C@H](C)[C@@H](O[C@H]2C[C@@](C)(OC)[C@@H](O)[C@H](C)O2)[C@H](C)[C@@H](O[C@@H]2O[C@H](C)C[C@H](N(C)C)[C@H]2O)[C@](C)(O)C[C@@H](C)C(=O)[C@H](C)[C@@H](O)[C@]1(C)O has the entry inactive: 1.07 and inactive: -0.173
Under ATP level, COc1ccc2c(C)cc(=O)oc2c1 has the entry inactive: 1.07

— the supplement of paper PMC6289059
